At least one peptide structure holds a part that was inferred or is arguable (an end, a ring closure or a residue). Peptide text beside a SMILES is read from it.
Experiment: rate of fibril formation (self-assembly) as a function of metal ion content
Type: physicochemical

Question: Which “rate of self-assembly / fibril formation” value (in the absence of ZnCl2) does the source give for `CC(C)C[C@H](NC(=O)[C@H](CCCCN)NC(=O)[C@H](CCC(N)=O)NC(=O)[C@H](Cc1c[nH]cn1)NC(=O)[C@H](CCC(N)=O)NC(=O)[C@@H](NC(=O)[C@H](CCC(=O)O)NC(=O)[C@@H](N)Cc1ccc(O)cc1)C(C)C)C(=O)N[C@H](C(=O)N[C@@H](Cc1ccccc1)C(=O)N[C@@H](Cc1ccccc1)C(=O)N[C@@H](C)C(=O)O)C(C)C` [Aβ(10-21)H13Q] (H-YEVQHQKLVFFA-OH) here?
Answer: greater propensity toward amyloid formation

Question: What about the “rate of self-assembly / fibril formation” value (in the presence of ZnCl2 (Zn^+2)) of the same compound?
Answer: comparatively higher

— patent publication US20060063919A1, “Self-assembling-peptide-based structures and processes for controlling the self-assembly of such structures” (priority 2004, published 2006)
